Where “and” joins values, the source holds several entries; their conditions need not be identical. Equal entries are not always repeated. Structures can show the parent of a compound that is named as a salt. This is one part of the list. Most values lie at the level of the controls, where differences are scatter.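 A single-replicate pilot screen of approved drugs and clinical or known-target compounds measured melting temperature via differential scanning fluorimetry. Top stabilizing hits raised the melting point by 2 °C or more; negative shifts indicate destabilization.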

This is an account of results in the supplement of paper PMC8166895.

In this experiment the test system is SARS-CoV-2 main protease (Mpro, nsp5). The experiment in a line: thermal shift ΔTm of Mpro relative to plate average Tm; higher = stronger thermal stabilization of Mpro (binding). The following applies: 10 µM; protein concentration 1 µM.
As to `Cc1c(N(C)CS(=O)(=O)O)c(=O)n(-c2ccccc2)n1C` [Analgin], the “thermal shift ΔTm of Mpro” value was 0.346 °C. Under `C[C@@H]1CCN(C(=O)CC#N)C[C@@H]1N(C)c1ncnc2[nH]ccc12` stands 0.0476 °C and -0.0777 °C; under `Cc1cc2c(F)c(Oc3ncnn4cc(OC[C@@H](C)OC(=O)[C@H](C)N)c(C)c34)ccc2[nH]1`, -0.213 °C; under `O=c1[nH]c(=O)n(C2CCCO2)cc1F` (centres undefined), 0.372 °C.

`CC(NCCC(c1ccccc1)c1ccccc1)c1ccccc1` (centres undefined) [Fendiline hydrochloride]: the “thermal shift ΔTm of Mpro” value came out at 0.313 °C. The value for `CCOC(=O)Nc1cc(-c2ccc(C)c(NS(C)(=O)=O)c2)nn2c(C)nnc12` [Bromosporine] was -0.0532 °C.

Regarding `CCCCNNC(=O)c1ccc(-c2cccc(F)c2F)cc1`, the “thermal shift ΔTm of Mpro” value is -0.193 °C.

In the case of `Nc1cc(C(Cl)=C(Cl)Cl)c(S(N)(=O)=O)cc1S(N)(=O)=O` [Clorsulon], the “thermal shift ΔTm of Mpro” value was -0.0232 °C.

For the compound `Cc1ccccc1CN1C2=NCCN2C(=O)C2=C1CCN(Cc1ccccc1)C2` [TIC10 Analogue], the “thermal shift ΔTm of Mpro” value amounted to 0.00869 °C. Under `CC[C@H](C)C(=O)O[C@H]1CCC=C2C=C[C@H](C)[C@H](CC[C@@H]3C[C@@H](O)CC(=O)O3)[C@H]21` [Mevastatin] stands -0.2 °C; under `C[C@H](CCC(=O)O)[C@H]1CC[C@H]2[C@@H]3[C@H](O)C[C@@H]4C[C@H](O)CC[C@]4(C)[C@H]3CC[C@]12C` [Chenodeoxycholic Acid], 0.004 °C. Under `CN1CCN(c2c(F)cc3c(=O)c(C(=O)O)cn(CCF)c3c2F)CC1` [Fleroxacin] stands -0.023 °C; under `CC(=O)OCC(CCn1cnc2cnc(N)nc21)COC(C)=O` [Famciclovir], -0.0228 °C. Under `COc1ccc([C@@H]2CC(=O)c3c(O)cc(O[C@@H]4O[C@H](CO)[C@@H](O)[C@H](O)[C@H]4O[C@@H]4O[C@@H](C)[C@H](O)[C@@H](O)[C@H]4O)cc3O2)cc1O` [Neohesperidin] stands -0.215 °C.

Regarding `C=CC(=O)Nc1cccc(Oc2nc(Nc3ccc(N4CCN(C)CC4)cc3OC)ncc2Cl)c1`, the “thermal shift ΔTm of Mpro” value was 0.441 °C. For `CC(C)CC(CC(=O)NO)C(=O)N[C@@H](Cc1ccc2ccccc2c1)C(=O)N[C@@H](C)C(=O)NCCN` (some centres undefined) [TAPI-1 trifluoroacetate], the “thermal shift ΔTm of Mpro” value was -0.0178 °C.

With `CC(C)CC(CC(=O)NO)C(=O)N[C@@H](Cc1ccc2ccccc2c1)C(=O)N[C@@H](C)C(=O)NCCN` (some centres undefined), the “thermal shift ΔTm of Mpro” value came to 0.146 °C.

In the case of `NCC(O)CC(=O)O` (centres undefined) [4-Amino-3-hydroxybutyric Acid], the “thermal shift ΔTm of Mpro” value was determined as 0.115 °C. Under `COC(=O)CCSCc1ccc(-c2onc(C)c2NC(=O)OC(C)c2ccccc2Cl)cc1` (centres undefined) stands -0.125 °C; under `CN1CCN(CCCN2c3ccccc3Sc3ccc(Cl)cc32)CC1` [Prochlorperazine Maleate], 0.114 °C.

As to `Cc1nc(=O)c2cc(CN(C)c3ccc(C(=O)N[C@@H](CCC(=O)O)C(=O)O)s3)ccc2[nH]1` [Raltitrexed], the “thermal shift ΔTm of Mpro” value stood at 0.13 °C. The value for `O=C1c2ccccc2C(=O)c2c1ccc(O)c2O` [Alizarin] was 0.681 °C; that for `c1ccc(CNc2nc(NCc3ccccc3)c3ccccc3n2)cc1` was -0.0656 °C. With `CC(/C=C1\SC(=S)N(CC(=O)O)C1=O)=C\c1ccccc1` [Epalrestat], the “thermal shift ΔTm of Mpro” value is 0.0784 °C. Consider `CCCOc1ccn2c(C(C)=O)cc(-c3ccccc3S(C)(=O)=O)c2c1`, for which the “thermal shift ΔTm of Mpro” value is -0.0123 °C.

As to `CCCN(CCC)C1CCc2cccc(O)c2C1` (centres undefined), the “thermal shift ΔTm of Mpro” value was -0.0119 °C. The value for `CS(=O)(=O)N1CCc2c(-c3cnc(N)nc3)nc(N3CCOCC3)nc21` was -0.0238 °C; that for `O=c1oc2ccccc2c(O)c1Cc1c(O)c2ccccc2oc1=O` [Dicoumarol] was -0.0334 °C; that for `COc1ccc(C(=O)N2CCCC2=O)cc1` [Aniracetam] was 0.321 °C. Under `C(=C\c1ccccc1)/CN1CCN(C(c2ccccc2)c2ccccc2)CC1` [Stugeron] stands 0.132 °C; under `CCN(CC)CC(=O)Oc1ccc(NC(C)=O)cc1` [Propacetamol Hydrochloride], 0.394 °C. Under `C[C@]1(O)C[C@@H](c2nc(-c3ccc4ccc(-c5ccccc5)nc4c3)c3c(N)nccn32)C1` [OSI-906 (Linsitinib)] stands 0.0774 °C; under `C[C@@H]1CCO[C@H]2Cn3cc(C(=O)NCc4ccc(F)cc4F)c(=O)c(O)c3C(=O)N12` [Dolutegravir sodium], 0.0703 °C. As for `C[C@@H]1CCO[C@H]2Cn3cc(C(=O)NCc4ccc(F)cc4F)c(=O)c(O)c3C(=O)N12`, the “thermal shift ΔTm of Mpro” value was 0.315 °C.

For `O=C(C1CCCCC1)N1CC(=O)N2CCc3ccccc3C2C1` (centres undefined) [Praziquantel], the “thermal shift ΔTm of Mpro” value was -0.168 °C. Under `CNC(=O)c1cc(Oc2ccc(NC(=O)Nc3cc(C(C)(C)C)nn3-c3ccc4ncccc4c3)c(F)c2)ccn1` [DCC-2036 (Rebastinib)] stands 0.00791 °C; under `OC[C@H]1O[C@H](O[C@]2(CCl)O[C@H](CCl)[C@@H](O)[C@@H]2O)[C@H](O)[C@@H](O)[C@H]1Cl` [Sucralose], -0.1 °C; under `COc1cc(-c2oc3cc(O)cc(O)c3c(=O)c2O[C@@H]2O[C@H](CO[C@@H]3O[C@H](CO)[C@@H](O)[C@H](O)[C@H]3O)[C@@H](O)[C@H](O)[C@H]2O)ccc1O` [Astragaloside], 0.0124 °C. The value for `Nc1nc2ccc(OC(F)(F)F)cc2s1` [Riluzole] was -0.000155 °C; that for `CN1CCC(=C2c3ccccc3CCc3cccnc32)CC1` [Azatadine dimaleate] was -0.0562 °C; that for `Cc1cc(-c2ncc(CNC(=O)c3ccc4c(c3)[nH]c3ccccc34)cc2F)ccn1` [Porcupine-IN-1] was 0.282 °C. Turning to `COc1ccc2c(c1)c(CC(=O)O)c(C)n2C(=O)c1ccc(Cl)cc1` [Indomethacin], the “thermal shift ΔTm of Mpro” value is -0.136 °C. Turning to `COC(=O)[C@H](CCCN=C(N)N)NS(=O)(=O)c1ccc(C)cc1`, the “thermal shift ΔTm of Mpro” value was -0.11 °C. Take `COC(=O)[C@H](CCCN=C(N)N)NS(=O)(=O)c1ccc(C)cc1` [TOS-ARG-OME hydrochloride]: the “thermal shift ΔTm of Mpro” value came to 0.373 °C.

Turning to `CC(C)(C)NCC(O)COc1cccc2c1CCC(=O)N2` (centres undefined) [Carteolol HCl], the “thermal shift ΔTm of Mpro” value is -0.0485 °C. Under `CNC(=O)c1cc(Oc2ccc(NC(=O)Nc3ccc(Cl)c(C(F)(F)F)c3)c(F)c2)ccn1` [Regorafenib (BAY 73-4506)] stands 0.403 °C. Under `O=C(O[C@H]1C[C@H]2CC[C@@H](C1)[N+]21CCCC1)C(O)(c1ccccc1)c1ccccc1` [Trospium chloride] stands 0.0237 °C.

In the case of `CN(C)CC(=O)Nc1ccc2[nH]c(=O)c3ccccc3c2c1`, the “thermal shift ΔTm of Mpro” value was -0.124 °C and -0.107 °C. Consider `N#C/C(=C\c1ccc(-c2cc(Cl)ccc2Cl)o1)C(=O)Nc1cccc2ncccc12`, for which the “thermal shift ΔTm of Mpro” value amounted to 0.122 °C.
